Source: paper PMC7496933, “TIM‐3 and CEACAM1 do not interact in cis and in trans” (European Journal of Immunology, 2020)
Results are given in words; binding and its absence hold for the method and conditions named. For some of these results: Binding seen in cells or lysates may run through a third protein. Some entries that bind do so weakly or less than the wild type.

Amino acid sequences for entries named in this document (tags omitted). A change or cut given only in a name is not applied to a line headed by its entry. Residues count along the entry.
UniProt Q8TDQ0: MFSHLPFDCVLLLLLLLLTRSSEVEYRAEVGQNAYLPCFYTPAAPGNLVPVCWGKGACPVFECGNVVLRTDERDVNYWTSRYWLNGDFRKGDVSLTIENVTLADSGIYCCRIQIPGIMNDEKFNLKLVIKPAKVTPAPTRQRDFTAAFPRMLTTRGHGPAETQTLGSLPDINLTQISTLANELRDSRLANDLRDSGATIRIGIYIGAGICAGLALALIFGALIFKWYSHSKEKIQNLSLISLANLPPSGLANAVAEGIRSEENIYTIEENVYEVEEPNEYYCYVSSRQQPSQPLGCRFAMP
human TIM‐3 on Jurkat cells: residues 22-301 of Q8TDQ0
UniProt Q7Z6A9, residues 31-289: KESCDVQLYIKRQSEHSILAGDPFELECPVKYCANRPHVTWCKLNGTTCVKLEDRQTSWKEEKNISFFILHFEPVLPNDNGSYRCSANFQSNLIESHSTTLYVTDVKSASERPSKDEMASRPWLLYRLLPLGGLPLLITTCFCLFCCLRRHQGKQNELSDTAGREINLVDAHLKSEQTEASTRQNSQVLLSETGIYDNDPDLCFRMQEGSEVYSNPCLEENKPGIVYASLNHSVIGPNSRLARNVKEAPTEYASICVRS
UniProt P09758, residues 27-274: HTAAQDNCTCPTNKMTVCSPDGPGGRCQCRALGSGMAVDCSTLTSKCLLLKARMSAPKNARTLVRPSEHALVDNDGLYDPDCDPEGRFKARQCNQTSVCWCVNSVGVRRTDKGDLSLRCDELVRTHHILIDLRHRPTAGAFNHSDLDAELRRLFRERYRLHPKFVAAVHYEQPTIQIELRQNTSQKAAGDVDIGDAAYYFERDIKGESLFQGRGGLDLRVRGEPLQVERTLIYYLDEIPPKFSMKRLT
UniProt P09793, residues 36-161: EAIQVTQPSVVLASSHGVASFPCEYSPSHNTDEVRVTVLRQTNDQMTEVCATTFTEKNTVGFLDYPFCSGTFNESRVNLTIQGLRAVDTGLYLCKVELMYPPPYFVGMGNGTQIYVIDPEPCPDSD

Legend:
[1] = target: CEACAM1‐mNeonGreen (human) (UniProt P13688); test: FRET or BRET; total internal reflection fluorescence microscopy on living cotransfected HEK293T cells; in cis; FRET yield by donor recovery after acceptor photobleaching; only cells in the highest decile of acceptor expression
[2] = target: human CEACAM1 (CEACAM1‐4S) on Jurkat cells (human) (UniProt P13688); test: flow cytometry on cells; Jurkat cells (1 × 10^5) expressing TIM‐3 or CEACAM1‐4S incubated with Ig fusion proteins at 31.6, 10, 3.16, 1 and 0.316 μg/mL; detected with APC‐conjugated goat‐anti‐human IgG (Fc‐specific); gMFI normalized to secondary Ab only; only the binder purified
[3] = target: recombinant human Gal‐9 (Gal‐9 E. coli G) (human) (UniProt O00182); test: ELISA; Gal‐9 or CEACAM1 immobilized overnight at 4°C on Maxisorp plates (coating 0.5 μg/mL); Ig fusion proteins added in PBS‐0.5% BSA, 1 h at room temperature; detected with HRP‐labeled goat‐anti‐human IgG (Fc‐specific), ABTS, OD 405 nm; both purified
[4] = target: recombinant human Gal‐9 expressed in E. coli (R&D systems) (human) (UniProt O00182); test: as above
[5] = target: recombinant human Gal‐9 expressed in HEK293T cells (R&D systems) (human) (UniProt O00182); test: as above
[6] = target: human TIM‐3 on Jurkat cells (human) (UniProt Q8TDQ0); test: flow cytometry on cells; Jurkat cells (1 × 10^5) expressing TIM‐3 or CEACAM1‐4S incubated with Ig fusion proteins at 31.6, 10, 3.16, 1 and 0.316 μg/mL; detected with APC‐conjugated goat‐anti‐human IgG (Fc‐specific); gMFI normalized to secondary Ab only; only the binder purified

With “BTLA‐mRuby3 (from UniProt Q7Z6A9 31-289) (receptor)” the binding [1] was “no binding”.

“TIM‐3 Ig fusion protein (SinoBiological) (from UniProt Q8TDQ0 22-202) (Fc fusion)” was tested, and the binding [2] was “no binding (tested: 31.6 μg/mL)”.

For “TROP2‐Ig (from UniProt P09758 27-274) (Fc fusion)”, the binding [3] was “binds”, the binding [4] was “binds” and the binding [5] was “binds weakly”.

For “fusion protein representing the extracellular domain of CEACAM1 (CEACAM1‐Ig) (from UniProt P13688 35-428) (Fc fusion)”, the binding [6] was “no binding (tested: 31.6 μg/mL)”.

For “mouse‐CTLA‐4Ig (from UniProt P09793 36-161) (Fc fusion)”, the binding [3] was “binds”, the binding [4] was “binds” and the binding [5] was “binds weakly”.

B1: fusion protein representing the extracellular domain of CEACAM1 (CEACAM1‐Ig) (Fc fusion, human, UniProt P13688 35-428, looked up)
chain: QLTTESMPFNVAEGKEVLLLVHNLPQQLFGYSWYKGERVDGNRQIVGYAIGTQQATPGPANSGRETIYPNASLLIQNVTQNDTGFYTLQVIKSDLVNEEATGQFHVYPELPKPSISSNNSNPVEDKDAVAFTCEPETQDTTYLWWINNQSLPVSPRLQLSNGNRTLTLLSVTRNDTGPYECEIQNPVSANRSDPVTLNVTYGPDTPTISPSDTYYRPGANLSLSCYAASNPPAQYSWLINGTFQQSTQELFIPNITVNNSGSYTCHANNSVTGCNRTTVKTIIVTELSPVVAKPQIKASKTTVTGDKDSVNLTCSTNDTGISIRWFFKNQSLPSSERMKLSQGNTTLSINPVKREDAGTYWCEVFNPISKNQSDPIMLNVNYNALPQENGLSPG
notes: CEACAM1 (CD66a), extracellular domain; also called CEACAM1 Ig fusion protein; source: bought: SinoBiological
B1 was tested, and the binding [3] was “binds”, the binding [4] was “binds” and the binding [5] was “binds weakly”. For the same molecule, the binding [2] was “binds”.
